Experimental data: PubChem BioAssay AID1159578 (Peter MacCallum Cancer Centre, 2015)
This is a random part of about 18,000 reagents tested. About 1,030 of them (5.7%) count as active. 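Inactive calls also include pools with fewer than 3300 nuclei, whose migration was not assessed.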 The raw values are shown without normalisation.

- Aim: 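siRNA pools altering how lymphatic endothelial cells close a scratch wound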 (primary screen)
- Cells: human lymphatic endothelial cells
- Reagent: siRNA pool against human genes, 40 nM
- Timing: 48 h after transfection
- Measured: 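Cells stained with dye and imaged after a scratch; covered wound area and nuclei counted, duplicates averaged, migration set against mock wells and turned into a robust z-score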
- Direction: migration robust z-score: higher = faster migration into the scratch; migration relative to mock: higher = more scratch area covered than mock; nuclei per well: higher = more cells in the well
- Call rule: 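Migration changed when robust z exceeds 2 or falls below -2 and mean nuclei number is at least 3300; otherwise not called changed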
- Calls: active = migration changed; inactive = no migration change, or too few cells

Gene	migration robust z-score	migration class with cell-count check	migration relative to mock	nuclei per well, duplicate mean	Call
CLEC12A (C-type lectin domain family 12 member A)	-1.87	migration z between -2 and 2; enough cells	0.39	3976	inactive
CHD1L (chromodomain helicase DNA binding protein 1 like)	0.18	migration z between -2 and 2; enough cells	0.84	4812	inactive
ROR2 (ROR family WNT receptor 2)	-0.16	migration z between -2 and 2; enough cells	0.78	6626	inactive
FAM218A (family with sequence similarity 218 member A)	0.26	migration z between -2 and 2; enough cells	0.96	5346	inactive
ALKAL1 (ALK and LTK ligand 1)	-0.78	migration z between -2 and 2; enough cells	0.68	6828	inactive
BCKDHB (branched chain keto acid dehydrogenase E1 subunit beta)	0.2	migration z between -2 and 2; enough cells	0.84	5844	inactive
SNAI3 (snail family transcriptional repressor 3)	-0.76	migration z between -2 and 2; enough cells	0.68	5115	inactive
ADAMTS5 (ADAM metallopeptidase with thrombospondin type 1 motif 5)	0.05	migration z between -2 and 2; enough cells	0.82	5348	inactive
RAD51 (RAD51 recombinase)	-2.96	under 3300 nuclei; migration not judged	0.24	2503	inactive
PTGIR (prostaglandin I2 receptor)	0.64	migration z between -2 and 2; enough cells	0.93	4944	inactive
PLSCR5 (phospholipid scramblase family member 5)	0.02	migration z between -2 and 2; enough cells	0.89	7165	inactive
SKAP2 (src kinase associated phosphoprotein 2)	-3.08	migration z below -2; enough cells	0.09	6258	active
ARL6IP5 (ARF like GTPase 6 interacting protein 5)	0.66	migration z between -2 and 2; enough cells	1.06	6226	inactive
MYH10 (myosin heavy chain 10)	0.3	migration z between -2 and 2; enough cells	0.97	6003	inactive
PKD1	0.73	migration z between -2 and 2; enough cells	0.94	4224	inactive
KIDINS220 (kinase D interacting substrate 220)	-0.05	migration z between -2 and 2; enough cells	0.8	5220	inactive
LEAP2 (liver enriched antimicrobial peptide 2)	-1.77	migration z between -2 and 2; enough cells	0.43	5392	inactive
INSM1 (INSM transcriptional repressor 1)	1.15	migration z between -2 and 2; enough cells	1.02	5392	inactive
GLS (glutaminase)	-1.89	migration z between -2 and 2; enough cells	0.44	3532	inactive
LBX1 (ladybird homeobox 1)	0.86	migration z between -2 and 2; enough cells	0.97	6018	inactive
ZDHHC23 (zDHHC palmitoyltransferase 23)	0.58	migration z between -2 and 2; enough cells	1.04	5052	inactive
MYT1L (myelin transcription factor 1 like)	-1.5	migration z between -2 and 2; enough cells	0.52	3990	inactive
COL6A1 (collagen type VI alpha 1 chain)	-1.83	migration z between -2 and 2; enough cells	0.41	4432	inactive

Records above with an active call, once more:
Gene	migration robust z-score	migration class with cell-count check	migration relative to mock	nuclei per well, duplicate mean	Call
SKAP2 (src kinase associated phosphoprotein 2)	-3.08	migration z below -2; enough cells	0.09	6258	active
